These are yes or no findings as the source states them, for the method shown. Binding seen in cells or lysates may run through a third protein. Some results given as binding are weak or reduced against the parent protein; the word gives no strength.

Sequences of proteins named here, by UniProt entry; tags and fusion partners are left off.
UniProt Q13950: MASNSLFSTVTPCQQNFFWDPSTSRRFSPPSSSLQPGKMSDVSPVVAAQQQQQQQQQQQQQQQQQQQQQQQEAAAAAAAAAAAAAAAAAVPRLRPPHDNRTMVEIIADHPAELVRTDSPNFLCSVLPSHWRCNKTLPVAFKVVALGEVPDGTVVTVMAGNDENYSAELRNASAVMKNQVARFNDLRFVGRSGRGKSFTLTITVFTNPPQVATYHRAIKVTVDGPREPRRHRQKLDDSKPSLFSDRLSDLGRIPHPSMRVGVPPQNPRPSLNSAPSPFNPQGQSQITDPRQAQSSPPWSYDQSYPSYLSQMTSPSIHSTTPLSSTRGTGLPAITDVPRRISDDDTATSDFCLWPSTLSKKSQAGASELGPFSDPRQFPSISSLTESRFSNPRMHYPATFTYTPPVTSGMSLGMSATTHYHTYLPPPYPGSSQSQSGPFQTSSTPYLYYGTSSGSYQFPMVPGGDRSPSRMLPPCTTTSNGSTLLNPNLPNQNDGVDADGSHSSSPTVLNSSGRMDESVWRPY
UniProt Q13620: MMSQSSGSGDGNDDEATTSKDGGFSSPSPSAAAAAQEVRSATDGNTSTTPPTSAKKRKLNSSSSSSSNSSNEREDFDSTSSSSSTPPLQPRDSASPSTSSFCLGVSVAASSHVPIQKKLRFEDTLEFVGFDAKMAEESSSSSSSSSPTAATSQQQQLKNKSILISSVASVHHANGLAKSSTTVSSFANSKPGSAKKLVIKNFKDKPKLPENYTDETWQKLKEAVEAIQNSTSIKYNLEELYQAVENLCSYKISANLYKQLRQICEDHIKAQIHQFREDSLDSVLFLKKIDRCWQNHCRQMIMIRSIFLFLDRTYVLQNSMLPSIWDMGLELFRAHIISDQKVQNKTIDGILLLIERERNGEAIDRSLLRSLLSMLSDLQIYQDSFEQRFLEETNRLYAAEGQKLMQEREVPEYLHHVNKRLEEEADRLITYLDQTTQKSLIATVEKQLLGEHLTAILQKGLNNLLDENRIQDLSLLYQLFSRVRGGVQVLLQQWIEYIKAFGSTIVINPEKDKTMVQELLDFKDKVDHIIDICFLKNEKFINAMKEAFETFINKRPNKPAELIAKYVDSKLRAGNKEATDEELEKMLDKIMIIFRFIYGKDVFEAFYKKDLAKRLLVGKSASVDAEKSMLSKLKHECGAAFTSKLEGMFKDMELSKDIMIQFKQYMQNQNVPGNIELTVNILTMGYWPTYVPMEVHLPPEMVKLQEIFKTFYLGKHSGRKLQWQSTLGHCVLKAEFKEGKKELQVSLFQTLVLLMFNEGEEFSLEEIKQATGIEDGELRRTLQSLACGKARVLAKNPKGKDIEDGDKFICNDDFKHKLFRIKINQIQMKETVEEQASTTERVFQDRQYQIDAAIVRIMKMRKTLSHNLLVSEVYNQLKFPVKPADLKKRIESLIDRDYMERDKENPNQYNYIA

Here are results for 1 substance from article PMC9613664.

The experiment concerns the target RUNX2 (endogenous) (human (endogenous in breast cancer cells, line not named)) (UniProt Q13950). In words: co-IP; endogenous proteins; cell extracts incubated with 2 ug antibody or normal IgG at 4 C overnight, protein A/G beads, five washes with lysis buffer, immunoblot; done with anti-RUNX2 and in reverse with antibodies against the partners. In general terms: In western blotting, separated proteins are transferred to a membrane and probed.

Turning to “CUL4B (endogenous) (from UniProt Q13620 1-913)”, the binding result is reported as “binds”.
